According to PMC7217962:
Results are given in words; binding and its absence hold for the method and conditions named. Binding seen in cells or lysates may run through a third protein. Some results given as binding are weak or reduced against the parent protein; the word gives no strength.

Amino acid sequences for entries named in this document (tags omitted). A change or cut given only in a name is not applied to a line headed by its entry. Chains listed by the source or under a name are the forms on record and can include a tag or linker.
CD44 standard form (CD44s), overexpressed as two differently tagged copies, CD44-FLAG and CD44-YFP (P16070-12, form named): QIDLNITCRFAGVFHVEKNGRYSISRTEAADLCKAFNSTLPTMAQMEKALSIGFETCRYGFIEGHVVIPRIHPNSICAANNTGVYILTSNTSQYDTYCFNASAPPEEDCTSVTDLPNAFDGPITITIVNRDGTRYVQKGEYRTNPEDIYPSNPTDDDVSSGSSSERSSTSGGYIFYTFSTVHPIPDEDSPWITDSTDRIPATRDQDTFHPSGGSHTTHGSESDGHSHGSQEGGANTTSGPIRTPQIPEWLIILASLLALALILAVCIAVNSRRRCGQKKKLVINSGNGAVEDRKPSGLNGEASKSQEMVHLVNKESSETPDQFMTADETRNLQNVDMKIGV

Target: CD44 standard form (CD44s), overexpressed as two differently tagged copies, CD44-FLAG and CD44-YFP (UniProt P16070)
Assay: co-IP; IMR90 cells overexpressing CD44-FLAG and CD44-YFP, incubated 6 h with 20 ug/ml cNSF-HA, fNSF-HA or PBS; cells cross-linked with 500 uM DSP and 500 uM DTME before harvest; RIPA lysis, buffer exchanged to 0.05% TBST; anti-FLAG (M2) cross-linked to Protein G Dynabeads; CD44-YFP detected by anti-GFP Western blot (n = 9)

binding: binds
Substance: CD44 standard form (CD44s), overexpressed as two differently tagged copies, CD44-FLAG and CD44-YFP (from UniProt P16070-12 21-361) (receptor)
